Binding data for one molecule are collected here from publication PMC9344665.

What all share (experiment): co-purification of coexpressed proteins (Ni-NTA, heparin, size-exclusion chromatography); His6-FARSA and untagged FARSB coexpressed in E. coli Rosetta (DE3); lysate on Ni-NTA (20 mM Tris-HCl pH 8.5, 500 mM NaCl), His6-tag removed with HRV3C, HiTrap Heparin HP with a NaCl gradient, then SEC in 20 mM HEPES-NaOH pH 7.5, 150 mM NaCl; SDS-PAGE of fractions
(In general: In gel filtration, larger molecules generally elute earlier.)

For experiment [1], the target named is T1, FARSA R404C variant (human) (UniProt Q9Y285).
T1 sequence: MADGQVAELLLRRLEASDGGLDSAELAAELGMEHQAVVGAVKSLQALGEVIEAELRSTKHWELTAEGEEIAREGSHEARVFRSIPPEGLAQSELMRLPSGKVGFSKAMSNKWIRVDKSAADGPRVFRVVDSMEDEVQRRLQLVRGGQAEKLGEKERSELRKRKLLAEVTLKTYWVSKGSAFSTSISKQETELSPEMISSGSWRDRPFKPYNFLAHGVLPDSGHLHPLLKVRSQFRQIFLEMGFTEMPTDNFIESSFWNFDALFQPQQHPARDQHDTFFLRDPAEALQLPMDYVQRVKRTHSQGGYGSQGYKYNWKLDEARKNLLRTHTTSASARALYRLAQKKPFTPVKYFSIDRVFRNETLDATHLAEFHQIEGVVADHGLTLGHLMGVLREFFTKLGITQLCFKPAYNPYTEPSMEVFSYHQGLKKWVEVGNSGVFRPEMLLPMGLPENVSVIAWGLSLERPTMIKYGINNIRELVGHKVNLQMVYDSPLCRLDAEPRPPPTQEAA

Experiment [2] concerns the target T2, FARSA P347L variant (human) (UniProt Q9Y285).
T2 sequence: T1 sequence with P347L, C404R

Experiment [3] has as its target T3, FARSA F277V variant (human) (UniProt Q9Y285).
T3 sequence: T1 sequence with F277V, C404R

Experiment [4] has as its target T4, wild-type FARSA (α subunit of cytosolic phenylalanyl-tRNA synthetase FARS1) (human) (UniProt Q9Y285).
T4 sequence: T1 sequence with C404R

Positions count from the first letter of the chain named. These are yes or no findings as the source states them, for the method shown. Some results given as binding are weak or reduced against the parent protein; the word gives no strength. Sequences can lack the tags named with a protein.

B1: FARSB (β subunit of cytosolic phenylalanyl-tRNA synthetase FARS1), no affinity tag (enzyme, UniProt Q9NSD9 1-584)
chain: MPTVSVKRDLLFQALGRTYTDEEFDELCFEFGLELDEITSEKEIISKEQGNVKAAGASDVVLYKIDVPANRYDLLCLEGLVRGLQVFKERIKAPVYKRVMPDGKIQKLIITEETAKIRPFAVAAVLRNIKFTKDRYDSFIELQEKLHQNICRKRALVAIGTHDLDTLSGPFTYTAKRPSDIKFKPLNKTKEYTACELMNIYKTDNHLKHYLHIIENKPLYPVIYDSNGVVLSMPPIINGDHSRITVNTRNIFIECTGTDFTKAKIVLDIIVTMFSEYCENQFTVEAAEVVFPNGKSHTFPELAYRKEMVRADLINKKVGIRETPENLAKLLTRMYLKSEVIGDGNQIEIEIPPTRADIIHACDIVEDAAIAYGYNNIQMTLPKTYTIANQFPLNKLTELLRHDMAAAGFTEALTFALCSQEDIADKLGVDISATKAVHISNPKTAEFQVARTTLLPGLLKTIAANRKMPLPLKLFEISDIVIKDSNTDVGAKNYRHLCAVYYNKNPGFEIIHGLLDRIMQLLDVPPGEDKGGYVIKASEGPAFFPGRCAEIFARGQSVGKLGVLHPDVITKFELTMPCSSLEIN
Take B1: the binding result is given as “no binding” in experiment [1], “no binding” in experiment [2], “binds” in experiment [3] and “binds” in experiment [4].
